Consider one compound from patent US20240238361A1, “METHODS OF TREATING FIBROSIS AND HYPOXIA-ASSOCIATED DAMAGE TO PERIPHERAL NERVES” (Temple Therapeutics BV, priority 2021, published 2024).

In the data set the test system is hypoxic primary rat fibroblasts. Put plainly: Phosphoproteomics (LC-MS/MS) and pathway analysis under chronic hypoxia. The note with it: 1 mM, 10 mM and 100 mM pooled. The format is cell-based. The protocol: In order to mimic the hypoxic micro-environment, primary rat fibroblasts were exposed to hypoxia. Cells were exposed to 2 separate conditions—continuous and episodic hypoxia. For continuous hypoxia, cells were incubated in a hypoxic chamber (2% 02) for 48 h and treated with or without L-alanyl-L-glutamine and no restoration to normoxia as shown in FIG. 1C. Cells were collected and processed for experiments subsequently.
Following fibroblast isolation from sciatic nerves of rats, (8E10 primary fibroblasts) were lysed in 80 ul of 8M Urea, 0.1M ammonium bicarbonate, phosphatase inhibitors (Sigma P5726&P0044) by sonication (Bioruptor, 10 cycles, 30 seconds on/off, Diagenode, Belgium) and proteins were digested as described previously (PMID:27345528). Shortly, proteins were reduced with 5 mM TCEP for 60 min at 37° C. and alkylated with 10 mM chloroacetamide for 30 min at 37° C. After diluting samples with 100 mM ammonium bicarbonate buffer to a final urea concentration of 1.6M, proteins were digested by incubation with sequencing-grade modified trypsin (1/50, w/w; Promega, Madison, Wisconsin) for 12 h at 37° C. After acidification using 5% TFA, peptides were desalted using C18 reverse-phase spin columns (Macrospin, Harvard Apparatus) according to the manufacturer's instructions, dried under vacuum and stored at −20° C. until further use.
Peptide samples were enriched for phosphorylated peptides using Fe(III)-IMAC cartridges on an AssayMAP Bravo platform as recently described (PMID: 28107008). Phospho-enriched peptides were resuspended in 0.1% aqueous formic acid and subjected to LC-MS/MS analysis using a Q-Exactive plus mass spectrometer fitted with an EASY-nLC 1000 (both Thermo Fisher Scientific) and a custom-made column heater set to 60° C. Peptides were resolved using a RP-HPLC column (75 μm×30 cm) packed in-house with C18 resin (ReproSil-Pur C18-AQ, 1.9 μm resin; Dr. Maisch GmbH) at a flow rate of 0.2 μL/min. […]

Where a SMILES comes first, the peptide text is derived from it.

`C[C@H](N)C(=O)N[C@@H](CCC(N)=O)C(=O)O` [L-alanyl-L-glutamine] (H-Ala-Gln-OH): the “proteins significantly regulated vs 0 mM hypoxic samples” value (of 5110 proteins profiled) was 1322. Moreover, for the setting “out of 1322”, the proteins significantly downregulated came to 607 and the proteins significantly upregulated was determined as 715.
